# Experimental data reported in PubChem BioAssay AID743255 (National Center for Advancing Translational Sciences (NCATS), 2014).
# Chains of the proteins cited; added tags and fusions are not shown. Lines headed by an entry give the natural chain unless they say otherwise; changes in a name come on top.
# UniProt O94782: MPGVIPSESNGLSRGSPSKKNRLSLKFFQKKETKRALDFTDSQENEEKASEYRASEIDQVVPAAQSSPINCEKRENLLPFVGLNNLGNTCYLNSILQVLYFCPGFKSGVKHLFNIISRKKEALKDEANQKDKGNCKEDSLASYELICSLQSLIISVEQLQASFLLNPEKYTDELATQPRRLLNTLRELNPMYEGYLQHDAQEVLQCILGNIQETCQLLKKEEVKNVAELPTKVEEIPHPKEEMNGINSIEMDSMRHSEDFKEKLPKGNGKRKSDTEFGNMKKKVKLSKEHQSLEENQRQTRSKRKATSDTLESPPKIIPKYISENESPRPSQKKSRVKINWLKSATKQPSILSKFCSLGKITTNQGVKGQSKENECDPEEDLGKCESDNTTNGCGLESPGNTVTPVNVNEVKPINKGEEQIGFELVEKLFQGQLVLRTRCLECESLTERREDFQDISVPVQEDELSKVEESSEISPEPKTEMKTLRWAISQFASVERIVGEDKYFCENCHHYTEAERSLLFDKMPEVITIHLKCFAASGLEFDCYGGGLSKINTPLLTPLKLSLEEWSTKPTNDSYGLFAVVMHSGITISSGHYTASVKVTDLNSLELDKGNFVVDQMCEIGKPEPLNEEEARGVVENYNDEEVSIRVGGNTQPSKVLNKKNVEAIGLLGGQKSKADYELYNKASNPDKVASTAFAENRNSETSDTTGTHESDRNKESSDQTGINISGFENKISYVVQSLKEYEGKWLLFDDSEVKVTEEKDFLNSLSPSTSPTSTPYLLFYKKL
# “And” between values parts separate entries of the source, which are not always exact repeats. Equal values may be shown once. The campaign covered roughly 390,000 compounds. About 910 (0.23%) were called active. Inconclusive means that the source gave no clear call. Such entries were picked first, then a sample of the others. Calls come from the whole dose curve; as a rule, active = well fitted inhibition curve with a large enough effect; inconclusive = small, poorly fitted or top-dose-only effect; inactive = no such curve, though single readings can be large or run the other way. A potency beside an inconclusive call is a rough fit, not a confirmed value.
# Target: Ubiquitin carboxyl-terminal hydrolase 1 (Homo sapiens) (UniProt O94782)
# Test: Inhibitors of USP1/UAF1: Primary Screen; note: nearly all actives have a fitted effect of over 60% in size
# Conditions: recombinant USP1/UAF1, Ub-Rhodamine cleavage fluorescence; activity change, negative = inhibition: at 57.1 µM (top of the series)
# Summary of the method: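 USP1/UAF1 complex (1 nM) preincubated 15 min at room temperature with compound, then Ub-Rho substrate (150 nM final) added. Kinetic fluorescence at 480/540 nm over 6 reads at 60 s intervals; 50 mM HEPES pH 7.8, 0.5 mM EDTA, 0.1 mg/ml BSA, 1 mM TCEP, 0.01% Tween-20.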
# % is set by controls: 0 for no effect and ±100 for the full control effect; potency is the fitted concentration of half-maximal effect.
Compound,Potency,"activity change, negative = inhibition"
CCCCCn1c(CN2CCN(c3cccc(Cl)c3)CC2)nc2c1c(=O)n(C)c(=O)n2C,"inconclusive: 5.01 µM [inhibitor, full curve, poor fit]",–
O=C(O)/C(=C/c1ccc(Cl)c([N+](=O)[O-])c1)c1ccc(S(=O)(=O)N2CCCCC2)s1,"inconclusive: 31.6 µM [inhibitor, partial curve, poor fit]",–
Cc1csc(NC(=O)C(CC(C)C)NS(=O)(=O)c2ccc3c(c2)oc(=O)n3C)n1 (stereo not drawn),"inconclusive: 31.6 µM [inhibitor, partial curve]",–
O=c1oc(-c2ccc(O)c(O)c2)cc2cccc(O)c12,–,inactive: -19.3%
Cc1cccc(NC(=O)c2ccc(S(=O)(=O)N3CCCCC3)cc2)n1,"inconclusive: 3.55 µM [inhibitor, full curve, poor fit]",–
Cc1cc2nn(-c3ccccc3)nc2cc1NC(=O)Cc1ccc(Cl)cc1,"inconclusive: 25.1 µM [inhibitor, partial curve]",–
O=C(Cn1c(=O)c2cccn2c2ccc(F)cc21)NCc1cccc(Cl)c1,–,inactive: -15.7%
Fc1cc(F)cc(-c2c(-c3ccccc3)ncc3ccc(F)cc23)c1,"inconclusive: 7.94 µM [inhibitor, partial curve]",–
COc1ccc(-n2c(Cc3cc(=O)[nH]c(=O)[nH]3)nnc2SCc2ccccc2)cc1,"inconclusive: 0.891 µM [inhibitor, full curve, poor fit]",–
COc1ccc(C2C(C(=O)OC(C)C)=C(C)N=c3s/c(=C\c4cccs4)c(=O)n32)cc1 (stereo not drawn),"inconclusive: 35.5 µM [inhibitor, partial curve, poor fit]",–
CC1=NN(c2ccccc2)C(=O)C1C=Nc1ccc(N(C)C)cc1 (stereo not drawn),"inconclusive: 35.5 µM [inhibitor, partial curve]",–
CN(C)S(=O)(=O)N1CCC(N2CCN(Cc3ccc(F)cc3)C(=O)C2=O)CC1,"inconclusive: 0.447 µM [inhibitor, full curve, poor fit]",–
CC1=NN(Cc2ccccc2)C(=O)C1C(c1ccccc1)C(C#N)C#N (stereo not drawn),–,inactive: -6.56%
COc1ccc(-n2nc3c(c2NC(=O)c2ccc(Br)cc2)CS(=O)C3)cc1 (stereo not drawn),"inconclusive: 0.708 µM [inhibitor, full curve]",–
COc1ccc(-c2cc(C(=O)N3CCN(S(=O)(=O)c4ccc(C)cc4)CC3)[nH]n2)cc1,–,inactive: -10.6%
COC(=O)c1cc2c(-c3ccccc3)cc3ccccn3c-2c1C(=O)OC,"inconclusive: 31.6 µM [inhibitor, partial curve]",–
Cc1c(Cl)cccc1NC(=O)CSc1nc(=O)n(CCN2CCOCC2)c2c1CCC2,"inconclusive: 8.91 µM [inhibitor, partial curve, poor fit]",–
CC(=O)N1CCc2c(sc3c2c(=O)n(CCc2ccccc2)c(=O)n3Cc2ccc(F)cc2)C1,"inconclusive: 6.31 µM [inhibitor, partial curve]",–
CCCCCCCCCC(=O)NNC(=O)c1c(O)c2ccccc2n(CC)c1=O,"inconclusive: 2.24 µM [inhibitor, full curve, poor fit]",–
CC(C)NC(=O)CC(=O)N/N=C/c1ccc(Br)cc1,"inconclusive: 3.98 µM [inhibitor, single point]",–
CS(=O)(=O)c1cc([N+](=O)[O-])c(Sc2nc3ccccc3[nH]2)c([N+](=O)[O-])c1,–,inactive: -2.04%

# Part of the list above in order of molar mass, high to low.
Compound,Potency,"activity change, negative = inhibition"
CC(=O)N1CCc2c(sc3c2c(=O)n(CCc2ccccc2)c(=O)n3Cc2ccc(F)cc2)C1,"inconclusive: 6.31 µM [inhibitor, partial curve]",–
COc1ccc(-c2cc(C(=O)N3CCN(S(=O)(=O)c4ccc(C)cc4)CC3)[nH]n2)cc1,–,inactive: -10.6%
Cc1csc(NC(=O)C(CC(C)C)NS(=O)(=O)c2ccc3c(c2)oc(=O)n3C)n1 (stereo not drawn),"inconclusive: 31.6 µM [inhibitor, partial curve]",–
CCCCCCCCCC(=O)NNC(=O)c1c(O)c2ccccc2n(CC)c1=O,"inconclusive: 2.24 µM [inhibitor, full curve, poor fit]",–
CS(=O)(=O)c1cc([N+](=O)[O-])c(Sc2nc3ccccc3[nH]2)c([N+](=O)[O-])c1,–,inactive: -2.04%

# Next compounds follow:

Compound,Potency,"activity change, negative = inhibition"
O=C(CSc1ncc(C(=O)O)n1-c1ccc(F)cc1)NCc1ccc2c(c1)OCO2,"inconclusive: 6.31 µM [inhibitor, full curve, poor fit]",–
Cc1cc(C)cc(NC(=S)Nc2cccc3ccccc23)c1,"inconclusive: 70.8 µM [inhibitor, partial curve, poor fit]",–
Cc1nnc(N2CCN(C(=O)Nc3cc(F)ccc3F)CC2)c2nn(-c3ccc(Cl)cc3)c(C)c12,"inconclusive: 0.251 µM [inhibitor, full curve, poor fit]",–
CCOc1ccc(NC(=O)CCS(=O)(=O)c2cc3c4c(c2)CCN4C(=O)CC3)cc1,–,inactive: -24.9%
Cc1ccc(Nc2ccc(N3CCN(C(=O)c4ccc([N+](=O)[O-])cc4Cl)CC3)nn2)cc1,"inconclusive: 22.4 µM [inhibitor, partial curve, poor fit]",–
CC(=O)Nc1ccc(NCc2nnc3n2CCCCC3)cc1,–,inactive: -23.1%
COC(=O)[C@@]1(Cc2ccc(F)cc2)[C@H]2c3cc(C(=O)N4CCCC4)n(CCCNc4ncc(C(F)(F)F)cc4Cl)c3C[C@H]2CN1C(=O)c1ccccc1,"inconclusive: 70.8 µM [inhibitor, partial curve, poor fit]",–
CN(C)c1ccc(C(CNC(=O)c2ccc(C(C)(C)C)cc2)N2CCCC2)cc1 (stereo not drawn),"inconclusive: 5.01 µM [inhibitor, partial curve, poor fit]",–
Cc1cc(-c2cccc(Br)c2)c(C#N)c(N)n1,–,inactive: -1.33%
Cc1ccc(CCNC(=O)c2cc(-c3ccccc3)n[nH]2)cc1,"inconclusive: 35.5 µM [inhibitor, single point]",–
Cc1cc(O)c(C(c2ccccc2)N2CCC(C)CC2)c(=O)n1Cc1ccco1 (stereo not drawn),–,inactive: -21.5%
O=C(O)CCN1C(=O)/C(=C/c2cn(-c3ccccc3)nc2-c2cccs2)SC1=S,"inconclusive: 35.5 µM [inhibitor, partial curve]",–
Cc1cccc(NC(=O)c2nc[nH]c2C(=O)N[C@@H](CC(C)C)C(=O)OCc2ccccc2)c1,–,inactive: -26.2%
Cc1ccc(Nc2ccc(N3CCN(C(=O)c4cccc([N+](=O)[O-])c4)CC3)nn2)cc1,"inconclusive: 0.251 µM [inhibitor, full curve, poor fit]",–
COc1ccccc1NC(=O)CN(C)S(=O)(=O)c1cccc2cccnc12,"inactive and inconclusive: 355 nM [inhibitor, full curve, poor fit]",–
Cc1ccc(NS(=O)(=O)c2ccc(OCC(=O)N3CCOCC3)cc2)cc1,"inconclusive: 0.708 µM [inhibitor, full curve, poor fit]",–
CN(Cc1ccccc1)Cc1c(F)cccc1F,–,inactive: 4.49%
O=C(CCC(=O)n1ncc2ccccc21)NCc1ccccc1Cl,"inconclusive: 35.5 µM [inhibitor, partial curve, poor fit]",–
CCOC(=O)c1ccc(NC(=O)CN2C(=O)C(C)(C)c3ccccc32)cc1,"inconclusive: 39.8 µM [inhibitor, partial curve, poor fit]",–
Cc1cc(SCC#N)n2nc(C)c(-c3ccc(Cl)cc3)c2n1,–,inactive: -17.4%
Cc1ccc(C2CC(=O)n3nc(-c4ccc(F)cc4)nc3S2)cc1 (stereo not drawn),–,inactive: -12.1%

Compound,Potency,"activity change, negative = inhibition"
CCCCNc1c(-c2ccc(SC(C)CC)c(OC)c2)nc2ccc(Cl)cn12 (stereo not drawn),"inconclusive: 79.4 µM [inhibitor, partial curve, poor fit]",–
COc1ccccc1C(=O)Nc1cc(Cl)ccc1O,–,inactive: 0.95%
O=S(=O)(O)c1ccc(SCc2ccccc2)nc1,–,inactive: -13.6%
CCCN(CCC)Cc1c(C(=O)N/N=C/c2cccs2)nnn1-c1nonc1N,"inconclusive: 2.82 µM [inhibitor, full curve, poor fit]",–
CCOC(=O)C1Nc2ccc(Br)cc2C2C=CCC12 (stereo not drawn),"inconclusive: 31.6 µM [inhibitor, partial curve]",–
O=[N+]([O-])c1ccc(O)c(-c2nc(-c3ccccc3)c(-c3cccs3)[nH]2)c1,–,inactive: -12.5%
O=[N+]([O-])c1ccc(-c2c(-c3ccccc3)ncc3ccc(F)cc23)cc1,"inconclusive: 35.5 µM [inhibitor, partial curve]",–
COc1ccc([C@H]2CC(=O)C=C(c3cc(C)ccc3F)C2)cc1,"inconclusive: 7.08 µM [inhibitor, partial curve, poor fit]",–
Cc1cc(O)c(C=O)c2c1C(=O)Oc1c(CO)c(O)c3c(c1O2)C(O)OC3=O (stereo not drawn),"inconclusive: 50.1 µM [inhibitor, partial curve, poor fit]",–
CC(C)C12CN3CC(C(C)C)(CN(C1)C3c1ccccc1)C2O (stereo not drawn),"inconclusive: 6.31 µM [inhibitor, single point]",–
COC(=O)c1ccc2c(c1)sc(=NC(=O)c1ccc(S(=O)(=O)N3CCCCC3)cc1)n2C,"inconclusive: 44.7 µM [inhibitor, single point]",–
COc1ccc(/C=C2\SC(=N)N(c3ccc(F)cc3)C2=O)cc1OC,"inconclusive: 44.7 µM [inhibitor, partial curve, poor fit]",–
c1ccc(CCCCN2C(Nc3ccccc3)=NC[C@@H]2Cc2ccccc2)cc1,–,inactive: -20.9%
CC1(C)CC(=O)C=C(c2ccc(F)cc2OCc2ccccc2)C1,"inconclusive: 1.26 µM [inhibitor, full curve, poor fit]",–
COc1ccc(C2c3c(-c4ccccc4)n[nH]c3C(=O)N2c2ccc(C(=O)O)cc2)c(OC)c1 (stereo not drawn),"inconclusive: 112 µM [inhibitor, partial curve]",–
Cc1ccc(NC(=O)Cn2c(=O)n(CCC(=O)N3CCc4ccccc4C3)c(=O)c3ccccc32)c(C)c1,–,inactive: -8.69%
CCOC(=O)c1c(N)sc(C(O)(C(F)(F)F)C(F)(F)F)c1-c1ccc(F)cc1,"inconclusive: 50.1 µM [inhibitor, partial curve, poor fit]",–
CCCOc1ccc(C2c3c(oc4ccc(F)cc4c3=O)C(=O)N2CCc2ccc(OC)cc2)cc1 (stereo not drawn),–,inactive: -17.8%
Nc1cc2nc[nH]c2cc1N,"inconclusive: 44.7 µM [inhibitor, partial curve]",–
CCN1CCN(c2ncnc3c2cnn3-c2cc(Cl)ccc2C)CC1,"inconclusive: 0.224 µM [inhibitor, full curve]",–
CCOC(=O)c1cnc(N2CCN(c3ccc(OC)cc3)CC2)c2ccccc12,"inconclusive: 7.94 µM [inhibitor, partial curve, poor fit]",–
